Measured data: PubChem BioAssay AID1159584 (Peter MacCallum Cancer Centre, 2016)

- Screen: 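Genes whose loss is lethal only together with E-cadherin loss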 (primary screen)
- Cells: human MCF10A breast epithelial cells, parental and CDH1-null
- Knock-down reagent: siRNA against human genes
- Read-out: 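Cell viability by CellTiter-Glo ATP luminescence, each line scaled to the mean of mock wells across plates, then CDH1-null over parental ratio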
- Scale: CDH1-null / parental viability ratio: higher = CDH1-null cells survive relatively better than parental; CDH1-null viability vs mock: higher = more viable CDH1-null cells
This is an unselected part of about 18,000 reagents. Further read-outs or replicates are left out here. No sequences are given here. Not given: the amount of reagent, the time to read-out.

After knock-down of CIMIP5 [SID134322536] the results were CDH1-null / parental viability ratio 0.88; CDH1-null viability vs mock (fraction of mock) = 0.6.
For GMPPB [SID134313788], the entry reads CDH1-null / parental viability ratio 1.14; CDH1-null viability vs mock (fraction of mock) = 1.08.
ABITRAM [SID134320109] gave CDH1-null / parental viability ratio 1.14; CDH1-null viability vs mock (fraction of mock) = 1.19.
Silencing of MRPS15 [SID134317827] gave: CDH1-null / parental viability ratio 1.24; CDH1-null viability vs mock (fraction of mock) = 0.88.
OLFML3 [SID152154066] gave CDH1-null / parental viability ratio 1.06; CDH1-null viability vs mock (fraction of mock) = 0.76.
WFDC10B [SID135623353] gave CDH1-null / parental viability ratio 1.22; CDH1-null viability vs mock (fraction of mock) = 0.9.
For IMMP2L [SID152147887], the values are CDH1-null / parental viability ratio 1.21; CDH1-null viability vs mock (fraction of mock) = 0.87.
Knock-down of IGSF5 [SID152150651] came out at: CDH1-null / parental viability ratio 1; CDH1-null viability vs mock (fraction of mock) = 0.9.
Silencing of TIMM17A [SID135622384] resulted in: CDH1-null / parental viability ratio 0.98; CDH1-null viability vs mock (fraction of mock) = 0.92.
Depletion of ZNF429 [SID152156541] gave: CDH1-null / parental viability ratio 1; CDH1-null viability vs mock (fraction of mock) = 0.8.
CNFN [SID134318988] gave CDH1-null / parental viability ratio 1.08; CDH1-null viability vs mock (fraction of mock) = 0.8.
For SPATA6L [SID135624114], the entry reads CDH1-null / parental viability ratio 0.99; CDH1-null viability vs mock (fraction of mock) = 0.91.
Knock-down of EPM2AIP1 [SID134322746] resulted in: CDH1-null / parental viability ratio 1.42; CDH1-null viability vs mock (fraction of mock) = 0.34.
PFN2 [SID135622191] gave CDH1-null / parental viability ratio 1.08; CDH1-null viability vs mock (fraction of mock) = 0.79.

2 entries already listed, arranged by “CDH1-null / parental viability ratio”, descending:
IGSF5 [SID152150651] | CDH1-null / parental viability ratio: 1; CDH1-null viability vs mock (fraction of mock): 0.9
TIMM17A [SID135622384] | CDH1-null / parental viability ratio: 0.98; CDH1-null viability vs mock (fraction of mock): 0.92
